Article PMC9883169
These are yes or no findings as the source states them, for the method shown. Binding seen in cells or lysates may run through a third protein. Some entries that bind do so weakly or less than the wild type. For part of these data: Sequences can lack the tags named with a protein.

Chains of the proteins cited; added tags and fusions are not shown.
UniProt P61244: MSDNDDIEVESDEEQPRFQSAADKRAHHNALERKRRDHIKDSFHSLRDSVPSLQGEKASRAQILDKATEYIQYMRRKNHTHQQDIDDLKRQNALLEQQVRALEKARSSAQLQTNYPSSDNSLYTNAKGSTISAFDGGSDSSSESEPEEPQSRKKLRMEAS

Assays:
[1] = target: T1, USP1 (endogenous, RL-4RH cells) (human (endogenous in RL-4RH)) (UniProt O94782); assay: co-IP; endogenous proteins in RL-4RH cells; IP with anti-USP1 (MAX blotted), anti-MAX or anti-MYC antibody (USP1 blotted); control IP with IgG
T1 sequence: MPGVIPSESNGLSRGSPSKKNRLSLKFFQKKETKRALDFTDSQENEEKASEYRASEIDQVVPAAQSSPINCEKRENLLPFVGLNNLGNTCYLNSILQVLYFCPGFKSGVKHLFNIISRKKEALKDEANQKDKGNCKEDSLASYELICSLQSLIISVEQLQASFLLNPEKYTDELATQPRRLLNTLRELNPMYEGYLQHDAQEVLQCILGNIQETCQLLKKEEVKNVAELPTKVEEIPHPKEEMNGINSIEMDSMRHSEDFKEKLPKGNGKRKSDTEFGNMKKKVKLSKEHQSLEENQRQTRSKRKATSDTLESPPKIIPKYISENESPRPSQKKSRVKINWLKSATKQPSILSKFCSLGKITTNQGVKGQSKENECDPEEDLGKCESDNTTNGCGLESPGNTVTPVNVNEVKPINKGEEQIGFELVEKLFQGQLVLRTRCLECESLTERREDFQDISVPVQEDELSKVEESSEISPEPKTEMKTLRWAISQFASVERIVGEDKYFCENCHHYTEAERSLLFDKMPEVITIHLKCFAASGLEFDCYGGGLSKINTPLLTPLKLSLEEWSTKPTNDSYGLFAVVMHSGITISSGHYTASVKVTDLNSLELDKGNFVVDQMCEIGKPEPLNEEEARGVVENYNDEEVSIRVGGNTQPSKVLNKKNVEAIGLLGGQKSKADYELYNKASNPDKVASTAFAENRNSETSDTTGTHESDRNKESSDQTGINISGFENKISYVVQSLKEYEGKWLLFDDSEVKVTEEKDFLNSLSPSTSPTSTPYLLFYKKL

[2] = target: T2, USP1 (in 293T cells, precipitated with USP1 antibody) (UniProt O94782); assay: co-IP; MAX WT and MAX truncates (HA-tagged) overexpressed in 293T cells; co-IP performed with USP1 antibody, western blotting
T2 sequence: T1 sequence

Flag-USP1 = target: T3, Flag-USP1 (UniProt O94782); assay: co-IP; 293T cells transfected with Flag-USP1 and HA-MAX; USP1 immunoprecipitated with anti-Flag antibody, HA-MAX examined by western blotting; control IP with IgG
T3 sequence: T1 sequence

binding [1]	binding [2]	binding (Flag-USP1)	Substance
binds	–	–	MAX (endogenous, RL-4RH cells) (from UniProt P61244 1-160)
–	binds	binds	HA-MAX (from UniProt P61244 1-160)
